The subject of this test is SAA induced IL-8 secretion in TM cells. The test is described as follows: Inhibition of SAA induced IL-8 secretion in TM cells (IL-8 in media by ELISA). In kind it is cell-based. Here is the method:
FIG. 11. Effect of MAP p38 kinase inhibitors on induction of IL-8 by SAA treatment (1 μg/ml) in TM cells. […] IL-8 was measured in the media by ELISA.
FIG. 12. […] NTM650-03, p9 or HL-60 cells were treated in serum-free DMEM for 4 hours with 1 μg/ml SAA and the indicated concentrations of SB202580. IL-8 was measured in the media by ELISA.
One pathway for upregulation of IL-8 is through activation of MAP kinases.

Usually inhibition stands for the percentage by which the read-out fell short of the control. Read a high inhibition as a response far below the control. Turning to `CC(C)OC(=O)C(C)(C)Oc1ccc(C(=O)c2ccc(Cl)cc2)cc1` [Fenofibrate], the inhibition at 1 µM (1 μM) turned out to be 59.9%. For the same compound, the inhibition at 10 µM (10 μM) is 52.7%. This compound yielded an inhibition at 50 µM (50 μM) of 57.2%.
